These are yes or no findings as the source states them, for the method shown. Some results given as binding are weak or reduced against the parent protein; the word gives no strength.
Key:
[1] = molecular target: Nrxn1 LNS2^SS2− (C293A), crystallographic construct (mouse) (UniProt Q9CS84); assay: crystal structure; Nxph1^3ND co-expressed and co-purified with LNS2, tags cleaved; 2–3 mg/ml, 16% PEG 3350, 2% Tacsimate pH 5.0, 0.1 M sodium citrate tribasic; no Ca2+; both purified
[2] = molecular target: Nrxn1 LNS2^SS2A+, crystallographic construct (mouse) (UniProt Q9CS84); assay: as above

Sequences of proteins named here, by UniProt entry; tags and fusion partners are left off. A change or cut given only in a name is not applied to a line headed by its entry. A line that says so, or that is headed by a name, gives the form on record, which may keep a tag or linker. Residues count along the entry.
Nrxn1 LNS2^SS2− (C293A), crystallographic construct (Q9CS84, form named): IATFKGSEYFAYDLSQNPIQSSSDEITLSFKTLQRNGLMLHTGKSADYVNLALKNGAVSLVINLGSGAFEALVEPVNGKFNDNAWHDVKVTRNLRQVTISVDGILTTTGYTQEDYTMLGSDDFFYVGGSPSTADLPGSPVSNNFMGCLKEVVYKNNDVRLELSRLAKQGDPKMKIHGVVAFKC
Nrxn1 LNS2^SS2A+, crystallographic construct (Q9CS84, form named): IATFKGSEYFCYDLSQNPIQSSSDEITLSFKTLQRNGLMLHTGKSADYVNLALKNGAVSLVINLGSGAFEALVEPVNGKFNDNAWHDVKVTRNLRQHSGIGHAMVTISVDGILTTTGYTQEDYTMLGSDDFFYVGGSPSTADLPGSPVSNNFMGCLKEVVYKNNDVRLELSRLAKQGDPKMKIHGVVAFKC
Nxph1^3ND (mature rat neurexophilin-1, 118-271, N146D/N156D/N162D) (Q63366, form named): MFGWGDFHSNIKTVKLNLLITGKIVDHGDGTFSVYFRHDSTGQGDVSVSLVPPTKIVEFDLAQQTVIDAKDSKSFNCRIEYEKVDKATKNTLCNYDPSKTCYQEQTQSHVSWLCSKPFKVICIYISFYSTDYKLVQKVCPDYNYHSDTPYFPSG

**Q.** Which results are given for “Nxph1^3ND (mature rat neurexophilin-1, 118-271, N146D/N156D/N162D) (from UniProt Q63366 118-271) (ligand)”?
**A.** binding [1]: binds; binding [2]: binds

Reference: publication PMC6856630
